No constants are given. Whether binding was seen depends on the method and setting. For some assays here: Binding seen in cells or lysates may run through a third protein. Some results given as binding are weak or reduced against the parent protein; the word gives no strength. For some assays here: Sequences can lack the tags named with a protein. Blank lines part the entries; values can stand above or below the molecule they belong to.
Columns and labels:
[1] = biological target: T1, GST-SIAH2 (human) (UniProt O43255); experiment: pull-down; GST-SIAH2 and His-DBC1 proteins from E. coli incubated in vitro overnight, GST beads for 2 hr at 4°C; blotted with an anti-DBC1 antibody; both purified
T1 sequence: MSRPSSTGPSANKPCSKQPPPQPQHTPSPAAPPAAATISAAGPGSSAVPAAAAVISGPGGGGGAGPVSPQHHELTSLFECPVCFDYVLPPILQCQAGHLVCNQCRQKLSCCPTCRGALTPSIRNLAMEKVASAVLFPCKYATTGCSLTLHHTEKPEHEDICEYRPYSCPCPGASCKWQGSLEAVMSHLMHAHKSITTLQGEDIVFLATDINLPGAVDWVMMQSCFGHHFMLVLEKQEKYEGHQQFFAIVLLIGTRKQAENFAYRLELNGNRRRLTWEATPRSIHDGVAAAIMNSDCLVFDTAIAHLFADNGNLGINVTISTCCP

Protein sequences, listed by entry. Tags and fused reporters are not part of them. Lines headed by an entry give the natural chain unless they say otherwise; changes in a name come on top.
UniProt Q8N163: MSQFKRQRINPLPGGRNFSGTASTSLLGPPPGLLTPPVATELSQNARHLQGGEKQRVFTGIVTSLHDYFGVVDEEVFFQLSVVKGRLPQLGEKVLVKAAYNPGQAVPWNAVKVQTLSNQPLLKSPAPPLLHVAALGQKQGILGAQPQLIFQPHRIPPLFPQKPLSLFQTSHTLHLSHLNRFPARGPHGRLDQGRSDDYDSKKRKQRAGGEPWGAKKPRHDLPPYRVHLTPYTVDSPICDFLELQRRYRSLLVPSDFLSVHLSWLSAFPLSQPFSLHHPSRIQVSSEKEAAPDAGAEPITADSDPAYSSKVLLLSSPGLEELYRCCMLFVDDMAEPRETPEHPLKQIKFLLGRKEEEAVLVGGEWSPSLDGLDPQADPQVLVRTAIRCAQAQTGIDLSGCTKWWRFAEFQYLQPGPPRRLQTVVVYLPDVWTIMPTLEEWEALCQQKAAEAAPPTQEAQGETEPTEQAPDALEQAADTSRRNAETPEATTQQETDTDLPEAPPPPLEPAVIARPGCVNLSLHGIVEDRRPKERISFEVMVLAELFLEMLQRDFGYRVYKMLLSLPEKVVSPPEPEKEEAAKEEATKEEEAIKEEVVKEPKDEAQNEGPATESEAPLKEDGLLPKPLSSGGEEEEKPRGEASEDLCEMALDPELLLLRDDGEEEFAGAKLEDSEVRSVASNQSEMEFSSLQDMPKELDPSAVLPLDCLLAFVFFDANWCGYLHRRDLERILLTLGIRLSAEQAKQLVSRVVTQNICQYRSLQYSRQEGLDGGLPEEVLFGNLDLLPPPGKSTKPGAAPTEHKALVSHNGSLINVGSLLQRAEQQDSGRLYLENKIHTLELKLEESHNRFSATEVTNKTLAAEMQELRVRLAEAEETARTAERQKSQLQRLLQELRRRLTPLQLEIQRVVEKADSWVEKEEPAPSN

[2] = biological target: Myc-DBC1 (human) (UniProt Q8N163); experiment: co-IP; transfected HEK293T cells; IP lysis buffer (150 mM NaCl, 20 mM Tris pH 7.4, 1 mM EGTA, 1 mM EDTA, 1% NP-40, 10% glycerol); immunoprecipitation with anti-Flag or anti-Myc antibody overnight at 4°C, Western blotting
[3] = biological target: His-DBC1 (human) (UniProt Q8N163); experiment: pull-down; purified His-tagged DBC1 used for His affinity isolation of endogenous OTUD5 from MCF7 cell lysates; blotted with an anti-OTUD5 antibody; only the target purified
[4] = biological target: endogenous DBC1 (human (endogenous in MDA-MB-231, MCF10A, MCF7, HEK293T)) (UniProt Q8N163); experiment: co-IP; endogenous proteins in MDA-MB-231, MCF10A or MCF7 cells; normoxia or hypoxia, MG132 (10 μM), in some experiments doramapimod (1 μM) or SIAH2 knockout; immunoprecipitation with anti-DBC1 antibody, Western blotting

- binding [1]: no binding
Molecule: C-terminal half of His-DBC1 (462–923) (from UniProt Q8N163 462-923) (domain or fragment)

- binding [2]: binds
B1: Flag-OTUD5 (enzyme, UniProt Q96G74 1-571)
chain: MTILPKKKPPPPDADPANEPPPPGPMPPAPRRGGGVGVGGGGTGVGGGDRDRDSGVVGARPRASPPPQGPLPGPPGALHRWALAVPPGAVAGPRPQQASPPPCGGPGGPGGGPGDALGAAAAGVGAAGVVVGVGGAVGVGGCCSGPGHSKRRRQAPGVGAVGGGSPEREEVGAGYNSEDEYEAAAARIEAMDPATVEQQEHWFEKALRDKKGFIIKQMKEDGACLFRAVADQVYGDQDMHEVVRKHCMDYLMKNADYFSNYVTEDFTTYINRKRKNNCHGNHIEMQAMAEMYNRPVEVYQYSTGTSAVEPINTFHGIHQNEDEPIRVSYHRNIHYNSVVNPNKATIGVGLGLPSFKPGFAEQSLMKNAIKTSEESWIEQQMLEDKKRATDWEATNEAIEEQVARESYLQWLRDQEKQARQVRGPSQPRKASATCSSATAAASSGLEEWTSRSPRQRSSASSPEHPELHAELGMKPPSPGTVLALAKPPSPCAPGTSSQFSAGADRATSPLVSLYPALECRALIQQMSPSAFGLNDWDDDEILASVLAVSQQEYLDSMKKNKVHRDPPPDKS

- binding [3]: binds
- binding [4]: binds
B2: endogenous OTUD5 (enzyme, UniProt Q96G74 1-571)
chain: B1 chain

- binding [4]: binds
B3: GST-SIAH2 (enzyme, human, UniProt O43255 1-324, looked up)
chain: T1 sequence
notes: E3 ubiquitin ligase SIAH2, human, wild type; also called GST-tagged SIAH2; purified glutathione S-transferase (GST) SIAH2; source: E. coli BL21, purified

Reference: publication PMC9377797, “Hypoxia-induced proteasomal degradation of DBC1 by SIAH2 in breast cancer progression” (eLife, 2022)
